Results as given in patent US10702498B2 (priority 2015, dated 2020).
“Also recorded” adds a separate entry of the source. For at least one compound, name, drawing or mass did not settle the structure.

Tests used:
μOR = μOR (Homo sapiens (Human), UniProt P35372); format: cell-based
[1] = molecular target: μOR β-arrestin2 recruitment (Homo sapiens (Human), UniProt P35372); assay: β-Arrestin recruitment, PathHunter enzyme complementation assay (DiscoveRx OPRM1 CHO-K1); format: cell-based

C[C@H](Cc1ccsc1)NC(=O)NC[C@@H](Cc1ccccc1)N(C)C [compound 12]
Gi/o activation / μOR agonist activity (μOR): robust μOR agonist activity; also recorded: strongly activated Gi/o | β-arrestin2 recruitment in PathHunter assay [1]: undetectable β-arrestin2 recruitment; also recorded: low levels of 3-arrestin2 recruitment
